The target of the assay is C‐MYC (endogenous) (human (endogenous in MDA‐MB‐231 and HT‐29)) (UniProt P01106). As to the kind of experiment: co-IP; anti‐C‐MYC precipitation of endogenous proteins from MDA‐MB‐231 and HT‐29 cell lysate; normal rabbit IgG as negative control; input 5% of the lysate.

By UniProt entry, the sequences of proteins in these tests, tags left out.
UniProt P01106: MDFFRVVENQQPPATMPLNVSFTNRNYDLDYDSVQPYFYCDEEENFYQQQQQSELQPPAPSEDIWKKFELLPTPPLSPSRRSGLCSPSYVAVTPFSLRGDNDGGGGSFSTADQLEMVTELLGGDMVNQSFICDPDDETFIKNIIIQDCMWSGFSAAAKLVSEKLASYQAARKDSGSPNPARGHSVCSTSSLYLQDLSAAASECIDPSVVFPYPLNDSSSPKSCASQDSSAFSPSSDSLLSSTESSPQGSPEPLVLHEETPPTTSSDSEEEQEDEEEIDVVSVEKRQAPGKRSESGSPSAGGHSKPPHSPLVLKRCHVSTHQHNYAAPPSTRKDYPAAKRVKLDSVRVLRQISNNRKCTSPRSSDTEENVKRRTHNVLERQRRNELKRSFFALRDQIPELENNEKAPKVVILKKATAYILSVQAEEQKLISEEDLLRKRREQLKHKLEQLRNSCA
UniProt Q14690: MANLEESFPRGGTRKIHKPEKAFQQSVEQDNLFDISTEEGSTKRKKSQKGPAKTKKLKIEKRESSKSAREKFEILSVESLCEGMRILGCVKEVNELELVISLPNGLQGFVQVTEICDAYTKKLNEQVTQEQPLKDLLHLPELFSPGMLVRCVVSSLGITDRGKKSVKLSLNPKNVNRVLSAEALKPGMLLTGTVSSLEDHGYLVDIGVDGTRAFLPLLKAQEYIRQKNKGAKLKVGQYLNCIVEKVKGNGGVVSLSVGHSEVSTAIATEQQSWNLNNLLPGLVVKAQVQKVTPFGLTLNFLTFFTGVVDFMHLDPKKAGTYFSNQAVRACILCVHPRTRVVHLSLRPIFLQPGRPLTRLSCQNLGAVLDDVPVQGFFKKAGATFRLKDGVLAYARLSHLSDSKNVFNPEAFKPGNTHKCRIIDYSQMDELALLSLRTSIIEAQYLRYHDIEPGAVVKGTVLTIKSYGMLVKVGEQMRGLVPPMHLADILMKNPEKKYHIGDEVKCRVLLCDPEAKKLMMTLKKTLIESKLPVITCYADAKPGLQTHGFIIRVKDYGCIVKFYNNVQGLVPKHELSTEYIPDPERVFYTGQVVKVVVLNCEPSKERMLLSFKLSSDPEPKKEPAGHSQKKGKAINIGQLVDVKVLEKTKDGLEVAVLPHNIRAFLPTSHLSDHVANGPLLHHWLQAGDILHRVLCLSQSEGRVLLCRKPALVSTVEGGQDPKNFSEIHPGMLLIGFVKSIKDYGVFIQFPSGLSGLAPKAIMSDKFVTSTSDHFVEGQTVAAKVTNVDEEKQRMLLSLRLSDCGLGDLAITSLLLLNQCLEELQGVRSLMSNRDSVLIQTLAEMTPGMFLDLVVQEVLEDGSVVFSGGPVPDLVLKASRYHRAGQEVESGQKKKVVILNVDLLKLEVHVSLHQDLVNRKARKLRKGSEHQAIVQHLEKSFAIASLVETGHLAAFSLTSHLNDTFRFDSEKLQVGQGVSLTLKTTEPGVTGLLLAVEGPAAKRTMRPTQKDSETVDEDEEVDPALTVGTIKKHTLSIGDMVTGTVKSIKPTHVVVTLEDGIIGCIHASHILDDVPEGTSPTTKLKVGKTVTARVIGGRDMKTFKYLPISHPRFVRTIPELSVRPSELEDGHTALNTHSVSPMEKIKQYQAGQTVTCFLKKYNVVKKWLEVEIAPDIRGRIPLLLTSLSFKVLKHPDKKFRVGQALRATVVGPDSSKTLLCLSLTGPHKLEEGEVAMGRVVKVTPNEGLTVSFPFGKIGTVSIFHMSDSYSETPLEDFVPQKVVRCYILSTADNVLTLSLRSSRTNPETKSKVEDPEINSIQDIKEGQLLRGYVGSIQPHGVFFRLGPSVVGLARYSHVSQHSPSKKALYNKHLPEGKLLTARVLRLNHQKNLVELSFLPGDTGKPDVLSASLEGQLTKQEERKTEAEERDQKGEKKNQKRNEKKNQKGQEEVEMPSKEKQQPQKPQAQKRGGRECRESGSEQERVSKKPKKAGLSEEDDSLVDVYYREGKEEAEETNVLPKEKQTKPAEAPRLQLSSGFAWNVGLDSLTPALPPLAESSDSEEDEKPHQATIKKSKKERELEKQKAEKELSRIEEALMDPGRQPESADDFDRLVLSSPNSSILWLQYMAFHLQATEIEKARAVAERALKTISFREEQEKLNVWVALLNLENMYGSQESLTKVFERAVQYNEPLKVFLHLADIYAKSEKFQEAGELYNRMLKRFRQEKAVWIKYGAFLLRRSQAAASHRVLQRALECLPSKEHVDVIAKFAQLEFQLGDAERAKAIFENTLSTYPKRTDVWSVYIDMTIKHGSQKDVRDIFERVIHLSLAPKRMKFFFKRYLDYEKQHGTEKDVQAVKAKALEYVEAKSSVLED

Results are given in words; binding and its absence hold for the method and conditions named. Binding seen in cells or lysates may run through a third protein. Some results given as binding are weak or reduced against the parent protein; the word gives no strength.

On to “PDCD11 (endogenous) (from UniProt Q14690 1-1871)”, for which the binding result was “binds”.

The record behind these values is paper PMC12061330.
